Structures are written as SMILES. The list shows a part of the results. Further columns of the screen follow, without active or inactive calls. The list favours compounds with an active or inconclusive main result. Words in brackets tell the shape of the fitted curve; partial curves, single points and poor fits give uncertain potencies.

Usually AC50 stands for the midpoint of the concentration-response curve, whichever way the signal moves.

This assay in a line: IkB Signaling. The conditions noted are these: ABC-DLBCL IkBa-CBG/CBR dual luciferase ratio (green luciferase fused to IkBa over red control in OCI-Ly3 lymphoma cells), 4 h. Put shortly:
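Luminescence ratio of IκBα-fused green versus native red beetle luciferase in OCI-Ly3 cells, 4 h post-doxycycline with compound; red signal alone, scaled from basal (0%) to zero light (-100%), flagged nonspecific or cytotoxic effects.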

[1] abbreviates: measured here: control luc red channel unless noted.

For the compound `CCC(Sc1ncnc2sc3c(c12)CCCC3)C(=O)OCC(C)C` (stereo not drawn), the half-maximal activity concentration (AC50) under setting [1] was 25.1 µM [falling, partial curve].
Take `CCOC(=O)N1CCC(NC(=O)c2cnn(-c3ccc(C)cc3)c2C2CCN(C(=O)OC(C)(C)C)CC2)CC1`: the concentration at half-maximal activity (AC50) under setting [1] was 31.6 µM [falling, single point].
For the compound `COc1ccc(-n2c(SCc3nc(-c4ccc(Cl)cc4)no3)nnc2-c2ccncc2)cc1`, the half-maximal activity concentration (AC50) under setting [1] was 25.1 µM [falling, single point].
For `CCOc1ccc(-c2cc(CCCC(=O)NCCc3ccc(OC)c(OC)c3)no2)cc1`, under setting [1], the AC50 is 5.01 µM [falling, partial curve].
With `CC(C)(C)C(=O)Nc1ccc2nc(SCCOc3ccccc3Cl)sc2c1`, the AC50 under setting [1] was 15.8 µM [falling, partial curve].
As to `Oc1cccc(Nc2cc(-c3ccccc3)ncn2)c1`, the AC50 under setting [1] was 15.8 µM [falling, partial curve].
With `CCc1ccccc1NC(=O)Cn1nnc(C(=O)Nc2ccc(OC)c(OC)c2)c1N`, under setting [1], the half-maximal activity concentration (AC50) was 25.1 µM [falling, single point].
On to `CCOc1cccc(C(=O)Nc2ccc(-c3nc4cc(C)cc(C)c4o3)cc2)c1`, for which, under setting [1], the AC50 is 7.94 µM [falling, full curve, poor fit].
Same read-out and setting: next, `CCCCN(Cc1ccco1)C(=O)c1cc2c(s1)-c1c(C)cccc1OC2`: 31.6 µM [falling, single point].
Still for that read-out and setting: next, `CCOCCCNC(=O)Cn1cc2c(n1)-c1c(oc(C(=O)N3CCCC3)c1C)CC2`: 25.1 µM [falling, single point]; `CCc1ccccc1NC(=O)c1cnn(-c2ccc(F)cc2)c1C1CCNCC1`: 2 µM [falling, full curve, poor fit]; `Cc1cccc(OCCOCCn2c(-c3ccc(Cl)cc3)nc3ccccc3c2=O)c1C`: 2.51 µM [rising, partial curve].
Turning to `CC(C)c1ccc(NC(=O)c2cnn3c(C(F)F)cc(-c4ccccc4)nc23)cc1`, under setting [1], the concentration at half-maximal activity (AC50) is 6.31 µM [rising, full curve].
As for `CCOC(=O)C1CCCN(CC(=O)NC2=Nc3ccccc3N=C(C)C2c2ccccc2)C1` (stereo not drawn), under setting [1], the AC50 is 12.6 µM [falling, partial curve].
With `Cc1cccc(NC(=O)CN2C(=O)COc3ccc(Cl)cc32)c1`, the AC50 under setting [1] is 15.8 µM [falling, partial curve].
`COc1cc(O)ccc1-c1nc2cc(C)ccn2c1Nc1ccccc1C`: the AC50 under setting [1] was 10 µM [falling, partial curve].
In the case of `Cc1cccc2c(=O)cc(CSc3ccccc3NC(=O)c3cccc(Br)c3)[nH]c12`, the AC50 under setting [1] is 15.8 µM [falling, partial curve].
Turning to `CCc1ccc(S(=O)(=O)Nc2cccc(-c3ccc(OC)nn3)c2)s1`, the AC50 under setting [1] was 12.6 µM [falling, partial curve, poor fit].
On to `COc1ccc(C2c3sc(=O)[nH]c3SC3C(=O)N(c4ccccc4)C(=O)C32)cc1` (stereo not drawn), for which, under setting [1], the half-maximal activity concentration (AC50) is 10 µM [falling, partial curve].
For the compound `CCOc1ccccc1NC(=O)NCc1noc2ccc(C)cc12`, the AC50 under setting [1] is 20 µM [falling, partial curve].
Turning to `COc1cc(C(=O)NCC(c2ccc3c(c2)OCO3)N2CCN(C)CC2)cc(OC)c1OC` (stereo not drawn), the half-maximal activity concentration (AC50) under setting [1] is 1 µM [rising, full curve, poor fit].
On the same count and under the same terms, the result for `CC(C)c1ccc2oc(-c3cc(NC(=O)c4cccnc4)ccc3Cl)nc2c1` reads 15.8 µM [falling, partial curve].
For the compound `COc1cccc(NC(=O)c2sc3nc(C)c(C(=O)Nc4ccc(C)cc4C)c(-c4ccc(C)o4)c3c2N)c1`, the half-maximal activity concentration (AC50) under setting [1] was 7.94 µM [falling, full curve].
On to `Cc1noc(C)c1COC(=O)c1cc(F)c(F)cc1Cl`, for which, under setting [1], the concentration at half-maximal activity (AC50) is 20 µM [falling, partial curve].
`Cc1cccc(NC(=O)CN2C(=O)CC(c3ccccc3)Sc3ccccc32)c1` (stereo not drawn): under setting [1], the AC50 was 10 µM [falling, partial curve].
As to `COc1ccc(-c2nc(-c3ccc(NC(=O)c4ccncc4)cc3)no2)cc1OC`, the AC50 (measured here: IkB-luc green channel) was 3.98 µM [falling, full curve] and the AC50 (measured here: control luc red channel) is 3.16 µM [falling, full curve].
As for `CC(CNC(=O)c1csc2c1CCCCC2)c1ccccc1` (stereo not drawn), under setting [1], the concentration at half-maximal activity (AC50) is 0.631 µM [rising, full curve].
In the case of `O=C(Nc1cccc(O)c1)c1cc(-c2ccccc2F)no1`, under setting [1], the AC50 was 25.1 µM [falling, single point].
Regarding `O=C(NCc1cccc(Cl)c1)c1ccc2c(Cl)c3c(nc2c1)CCCC3`, the AC50 under setting [1] was 7.94 µM [falling, partial curve].
In the case of `COc1ccc(CCN2C(=O)N(c3ccc(C)cc3)C(=O)C2CC(=O)Nc2ccc(OC)cc2)cc1` (stereo not drawn), the AC50 under setting [1] was 39.8 µM [falling, partial curve, poor fit].
With `COc1ccccc1NC(=O)c1c(NCc2ccc(C)o2)sc2c1CCC(C)C2` (stereo not drawn), the concentration at half-maximal activity (AC50) under setting [1] was 10 µM [falling, partial curve].
Same read-out and setting: the result for `CC(C(=O)Nc1cc(C(F)(F)F)ccc1Cl)n1nnc2sc3c(c2c1=O)CCCC3` (stereo not drawn) reads 20 µM [falling, single point]; that for `COc1cccc(CNC(=O)c2nn(-c3ccccc3Cl)nc2CO)c1`, 15.8 µM [falling, single point]; that for `Cc1ccccc1C(=O)NCc1nc2cccnc2n1Cc1ccccc1`, 25.1 µM [falling, single point].
Take `CCC(Sc1nnnn1-c1ccccc1)C(=O)Nc1nc2ccccc2s1` (stereo not drawn): the AC50 under setting [1] is 12.6 µM [falling, partial curve].
Turning to `Cc1ccc2oc(-c3ccc(C)c(NC(=O)c4ccc(C(C)(C)C)cc4)c3)nc2c1`, the concentration at half-maximal activity (AC50) under setting [1] was 15.8 µM [falling, partial curve].
Consider `Cc1ccc(-c2csc(=Nc3ccccc3)n2Cc2ccc3c(c2)OCO3)cc1C`, for which the concentration at half-maximal activity (AC50) under setting [1] is 3.98 µM [falling, full curve].
As for `C[N+]1(CCCCC[N+]2(C)CCCC2)CCCC1`, under setting [1], the half-maximal activity concentration (AC50) is 39.8 µM [rising, partial curve, poor fit] [measured here: IkB-luc green channel].
Take `N#Cc1c(NC(=O)CSc2nc(N)cc(=O)[nH]2)sc2c1CCCCCC2`: the AC50 under setting [1] was 7.94 µM [falling, full curve, poor fit].
As to `CCOC(=O)CNC(=O)N1CCc2cc(S(=O)(=O)N3CCC(C)CC3)ccc21`, under setting [1], the AC50 was 20 µM [falling, partial curve].
On the same count and under the same terms, next, `Cc1cccc(OC(=O)c2cc(-c3ccc4c(c3)OCCO4)on2)c1`: 25.1 µM [falling, single point]; `CC(C)(C)OC(=O)N1CCC(c2c(C(=O)N3CCN(c4ncccn4)CC3)cnn2-c2ccccc2)CC1`: 0.01 µM [rising, full curve].
For the compound `O=C1CC(N2CCN(c3ccc(O)cc3)CC2)C(=O)N1Cc1cccs1` (stereo not drawn), the AC50 under setting [1] is 12.6 µM [falling, partial curve].
As for `COc1ccc(-c2nc3ccccc3o2)cc1NC(=O)C(C)Oc1ccc(Cl)cc1Cl` (stereo not drawn), the concentration at half-maximal activity (AC50) under setting [1] was 12.6 µM [falling, partial curve].
Same read-out and setting: next, `CC(C)C12CN3CC(C(C)C)(CN(C1)C3c1ccc(Cl)cc1)C2=O` (stereo not drawn): 25.1 µM [falling, single point]; `Cc1nc2ccccc2n1CCc1nc2c3ccccc3nc(SCC(=O)Nc3ccc(Br)cc3F)n2n1`: 15.8 µM [rising, partial curve, poor fit]; `CN1CCN(c2oc(-c3ccc(COc4ccc(Cl)cc4)o3)nc2C#N)CC1`: 20 µM [falling, partial curve].
Still for that read-out and setting: next, `O=C(CN1C(=O)CCc2cc(S(=O)(=O)N3CCOCC3)ccc21)Nc1cccc(Cl)c1`: 12.6 µM [falling, partial curve]; `COc1ccc(NC(=O)Cn2cnc3sc(C)c(S(=O)(=O)N4CCN(C)CC4)c3c2=O)cc1Cl`: 10 µM [falling, partial curve]; `O=C(Nc1ccccc1)c1cc([N+](=O)[O-])ccc1Cl`: 3.98 µM [falling, partial curve].
For `O=C(Nc1cccc(NC(=O)c2ccc(Br)o2)c1)c1ccccc1`, the concentration at half-maximal activity (AC50) under setting [1] was 12.6 µM [falling, partial curve].
Regarding `COc1cccc(C2c3c(oc4ccc(C)cc4c3=O)C(=O)N2CCCN2CCOCC2)c1OC` (stereo not drawn), the half-maximal activity concentration (AC50) under setting [1] is 1.58 µM [rising, full curve, poor fit].
In the case of `COC(=O)C1=C(N)Oc2cc(C)n(Cc3ccco3)c(=O)c2C1c1cccc(Cl)c1` (stereo not drawn), the AC50 under setting [1] was 31.6 µM [falling, partial curve].
Take `Cc1ccccc1-n1cc(-c2ccccc2)nc1SCC(=O)Nc1ccc(F)cc1`: the AC50 under setting [1] was 7.94 µM [falling, partial curve].
Regarding `CCOC(=O)c1cccc(NC2c3ccccc3C(=O)N2Cc2ccco2)c1` (stereo not drawn), the concentration at half-maximal activity (AC50) under setting [1] was 20 µM [falling, partial curve].
On the same count and under the same terms, next, `COc1ccc(C2C(=O)N(C3CCC(C)CC3)CC(=O)N2Cc2ccccc2Cl)cc1OC` (stereo not drawn): 39.8 µM [falling, single point].
Consider `COc1ccc(-c2nnc(SCC(=O)Nc3sc4c(c3C#N)CCC4)n2CC2CCCO2)cc1` (stereo not drawn), for which the concentration at half-maximal activity (AC50) under setting [1] is 31.6 µM [falling, partial curve].
As for `Cc1noc(Cn2c(=O)c3ccccc3n(CC(=O)Nc3cccc(Cl)c3C)c2=O)n1`, the AC50 under setting [1] is 31.6 µM [falling, single point].
Turning to `COc1cccc(NC(=O)CSc2nc3n[nH]c(C)c3c(=N)n2-c2cccc(OC)c2)c1`, under setting [1], the AC50 was 5.01 µM [falling, partial curve].
On to `Cc1cc(C(=O)OCC(=O)Nc2cc(C(F)(F)F)ccc2N2CCOCC2)c(C)o1`, for which the AC50 under setting [1] is 39.8 µM [falling, single point].
With `C=CCn1c(C)cc(C(=O)CSc2nc3ccccc3o2)c1C`, the AC50 under setting [1] is 39.8 µM [falling, single point].
Turning to `CC(C)c1ccc(OCC(=O)Nc2c(Cl)ccc3nsnc23)cc1`, the AC50 under setting [1] is 2 µM [rising, full curve].
